{"source": "patent US20060148766A1", "about": "(priority 2002, published 2006)", "key": {"[1]": {"test_system": "cytochrome C (Cyt C)", "assay": "Cyt C assay (Western blotting), intracellularly produced amyloid precursor protein and swe protein", "assay_type": "cell-based, rat", "conditions": "10 μM, FIG. 3"}, "[2]": {"test_system": "Cyt C", "assay": "Cyt C assay (Western blotting), intracellularly produced C-terminal protein (C59, C99)", "assay_type": "cell-based, rat", "conditions": "10 μM, FIG. 5"}, "[3]": {"test_system": "male ICR mice", "assay": "Passive avoidance test, simple memory impairment induced by CT105 protein", "assay_type": "in vivo", "conditions": "10 mg/kg intra-abdominally once a day for one week before CT105 685 pmol into cerebral ventricle; measured after one week; FIG. 6"}, "[4]": {"test_system": "male ICR mice", "assay": "Water maze test, spatial memory impairment induced by CT105 protein", "assay_type": "in vivo", "conditions": "10 mg/kg intra-abdominally once a day for one week before CT105; five days of tests; FIG. 7"}, "[5]": {"test_system": "beta-amyloid infusion models", "assay": "Morris water maze test, beta-amyloid (Aβ1-42) infusion models of Alzheimer's disease", "assay_type": "in vivo"}}, "note": "At least one compound was matched to its structure with a doubt left.", "data": [{"smiles": "CN(C)c1ccc(O)c2c1C[C@H]1C[C@H]3[C@H](N(C)C)C(O)=C(C(N)=O)C(=O)[C@@]3(O)C(O)=C1C2=O", "note": "[minocycline]", "values": [{"measurement": "Cyt C release in the cytoplasmic layer", "setting": "[1]; caused by intracellularly produced beta-amyloid precursor protein (WT)", "result": "reduced"}, {"measurement": "Cyt C release in the cytoplasmic layer", "setting": "[1]; caused by intracellularly produced swe protein", "result": "reduced"}, {"measurement": "Cyt C release into the cytoplasmic layer", "setting": "[2]; caused by C59 protein", "result": "reduced"}, {"measurement": "Cyt C release into the cytoplasmic layer", "setting": "[2]; caused by C99 protein", "result": "reduced"}, {"measurement": "latency time, passive avoidance, compared to comparison group given only CT105", "setting": "[3]", "result": "significantly reduced"}, {"measurement": "latency time to reach the safety plate, water maze, compared to comparison group given only CT105", "setting": "[4]", "result": "significantly reduced"}, {"measurement": "time stayed at zone 1 versus other zones (probe test, platform removed)", "setting": "[5]; 45 mg/kg/day intra-abdominally for two weeks after one week Aβ1-42 infusion, 48 hours after last learning trial, FIG. 9", "result": "for a longer time than other zones 2, 3 and 4"}, {"measurement": "time required to locate the platform (learning trial)", "setting": "[5]; 45 mg/kg/day intra-abdominally for two weeks after one week Aβ1-42 infusion, Student's t-test, p<0.05, FIG. 8", "result": "far faster than the comparison group"}, {"measurement": "stayed time versus comparison group (probe test)", "setting": "[5]; 45 mg/kg/day intra-abdominally for two weeks, one-way ANOVA, p<0.05, FIG. 9", "result": "statistically significant difference"}]}]}
